Our source for the binding values is PMC12260585.

By UniProt entry, the sequences of proteins in these tests, tags left out.
UniProt Q15836: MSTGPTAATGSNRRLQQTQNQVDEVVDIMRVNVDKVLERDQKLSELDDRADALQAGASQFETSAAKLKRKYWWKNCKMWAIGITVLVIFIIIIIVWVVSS

The target in one assay is T1, SNAP23 (UniProt O00161).
T1 sequence: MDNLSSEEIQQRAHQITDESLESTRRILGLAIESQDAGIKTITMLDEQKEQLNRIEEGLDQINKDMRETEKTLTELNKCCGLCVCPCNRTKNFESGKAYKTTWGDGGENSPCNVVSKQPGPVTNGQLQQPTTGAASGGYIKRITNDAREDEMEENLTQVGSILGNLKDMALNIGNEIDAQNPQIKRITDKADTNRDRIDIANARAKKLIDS
Description: co-IP; co-immunoprecipitation with SNAP23 in HBMECs.

A further assay deals with FLAG-tagged syntaxin 4 (UniProt Q12846). Description: co-IP; HBMECs transfected with FLAG-tagged VAMP3 or FLAG-tagged syntaxin 4.
The target of another assay is FLAG-tagged VAMP3 (UniProt Q15836). Described as above.

No constants are given. Whether binding was seen depends on the method and setting. Binding seen in cells or lysates may run through a third protein. Some entries that bind do so weakly or less than the wild type.

For VAMP3 (from UniProt Q15836 1-100), the binding entry with SNAP23 is on record as “binds”.

B1: syntaxin 18 (protein, UniProt Q9P2W9 1-335)
chain: MAVDITLLFRASVKTVKTRNKALGVAVGGGVDGSRDELFRRSPRPKGDFSSRAREVISHIGKLRDFLLEHRKDYINAYSHTMSEYGRMTDTERDQIDQDAQIFMRTCSEAIQQLRTEAHKEIHSQQVKEHRTAVLDFIEDYLKRVCKLYSEQRAIRVKRVVDKKRLSKLEPEPNTKTRESTSSEKVSQSPSKDSEENPATEERPEKILAETQPELGTWGDGKGEDELSPEEIQMFEQENQRLIGEMNSLFDEVRQIEGRVVEISRLQEIFTEKVLQQEAEIDSIHQLVVGATENIKEGNEDIREAIKNNAGFRVWILFFLVMCSFSLLFLDWYDS
In the case of B1, the binding result in the assay with FLAG-tagged syntaxin 4 and in the assay with FLAG-tagged VAMP3 was “no binding” throughout.
